Data as given in the supplement of paper PMC10849652.
The other results are listed elsewhere or left out.

By UniProt entry, the sequences of proteins in these tests, tags left out. Where a name states a change or a piece, a line headed by the entry shows the natural chain unless it says otherwise.
UniProt P52888, whole entry, looked up: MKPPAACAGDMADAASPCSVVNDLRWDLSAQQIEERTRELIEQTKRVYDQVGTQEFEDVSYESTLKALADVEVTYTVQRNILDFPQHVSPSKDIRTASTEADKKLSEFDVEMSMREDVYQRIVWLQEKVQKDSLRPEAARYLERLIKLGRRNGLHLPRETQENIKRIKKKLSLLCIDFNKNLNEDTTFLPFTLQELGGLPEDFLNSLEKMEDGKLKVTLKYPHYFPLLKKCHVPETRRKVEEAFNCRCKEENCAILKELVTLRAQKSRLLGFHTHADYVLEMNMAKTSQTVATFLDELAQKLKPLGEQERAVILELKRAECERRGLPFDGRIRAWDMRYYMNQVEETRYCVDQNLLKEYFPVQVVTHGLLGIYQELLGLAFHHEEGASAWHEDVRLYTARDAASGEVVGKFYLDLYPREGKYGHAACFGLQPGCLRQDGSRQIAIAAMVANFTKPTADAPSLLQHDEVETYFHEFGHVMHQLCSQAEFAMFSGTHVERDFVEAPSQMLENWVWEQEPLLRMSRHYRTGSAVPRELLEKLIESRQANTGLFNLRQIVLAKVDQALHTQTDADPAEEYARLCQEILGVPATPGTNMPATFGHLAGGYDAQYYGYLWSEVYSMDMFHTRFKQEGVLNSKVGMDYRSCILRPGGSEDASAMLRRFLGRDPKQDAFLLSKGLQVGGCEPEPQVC
UniProt Q9Y5J7: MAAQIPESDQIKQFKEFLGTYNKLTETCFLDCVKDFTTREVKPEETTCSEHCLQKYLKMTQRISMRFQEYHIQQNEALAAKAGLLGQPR
UniProt Q9BZK7: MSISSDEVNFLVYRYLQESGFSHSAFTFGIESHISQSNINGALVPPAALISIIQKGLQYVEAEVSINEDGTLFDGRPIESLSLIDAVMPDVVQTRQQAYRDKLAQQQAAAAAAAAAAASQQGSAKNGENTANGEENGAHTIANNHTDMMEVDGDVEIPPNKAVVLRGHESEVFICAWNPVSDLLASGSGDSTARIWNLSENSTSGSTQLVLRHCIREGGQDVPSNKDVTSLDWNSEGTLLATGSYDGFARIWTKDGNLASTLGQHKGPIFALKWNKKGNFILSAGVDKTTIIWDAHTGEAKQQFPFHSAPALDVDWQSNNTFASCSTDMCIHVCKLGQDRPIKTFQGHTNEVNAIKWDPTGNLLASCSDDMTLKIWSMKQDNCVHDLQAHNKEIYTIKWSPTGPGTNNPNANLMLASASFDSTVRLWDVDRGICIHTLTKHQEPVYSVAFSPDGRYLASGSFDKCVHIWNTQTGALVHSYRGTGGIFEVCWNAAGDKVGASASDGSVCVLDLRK
UniProt Q66K14, whole entry, looked up: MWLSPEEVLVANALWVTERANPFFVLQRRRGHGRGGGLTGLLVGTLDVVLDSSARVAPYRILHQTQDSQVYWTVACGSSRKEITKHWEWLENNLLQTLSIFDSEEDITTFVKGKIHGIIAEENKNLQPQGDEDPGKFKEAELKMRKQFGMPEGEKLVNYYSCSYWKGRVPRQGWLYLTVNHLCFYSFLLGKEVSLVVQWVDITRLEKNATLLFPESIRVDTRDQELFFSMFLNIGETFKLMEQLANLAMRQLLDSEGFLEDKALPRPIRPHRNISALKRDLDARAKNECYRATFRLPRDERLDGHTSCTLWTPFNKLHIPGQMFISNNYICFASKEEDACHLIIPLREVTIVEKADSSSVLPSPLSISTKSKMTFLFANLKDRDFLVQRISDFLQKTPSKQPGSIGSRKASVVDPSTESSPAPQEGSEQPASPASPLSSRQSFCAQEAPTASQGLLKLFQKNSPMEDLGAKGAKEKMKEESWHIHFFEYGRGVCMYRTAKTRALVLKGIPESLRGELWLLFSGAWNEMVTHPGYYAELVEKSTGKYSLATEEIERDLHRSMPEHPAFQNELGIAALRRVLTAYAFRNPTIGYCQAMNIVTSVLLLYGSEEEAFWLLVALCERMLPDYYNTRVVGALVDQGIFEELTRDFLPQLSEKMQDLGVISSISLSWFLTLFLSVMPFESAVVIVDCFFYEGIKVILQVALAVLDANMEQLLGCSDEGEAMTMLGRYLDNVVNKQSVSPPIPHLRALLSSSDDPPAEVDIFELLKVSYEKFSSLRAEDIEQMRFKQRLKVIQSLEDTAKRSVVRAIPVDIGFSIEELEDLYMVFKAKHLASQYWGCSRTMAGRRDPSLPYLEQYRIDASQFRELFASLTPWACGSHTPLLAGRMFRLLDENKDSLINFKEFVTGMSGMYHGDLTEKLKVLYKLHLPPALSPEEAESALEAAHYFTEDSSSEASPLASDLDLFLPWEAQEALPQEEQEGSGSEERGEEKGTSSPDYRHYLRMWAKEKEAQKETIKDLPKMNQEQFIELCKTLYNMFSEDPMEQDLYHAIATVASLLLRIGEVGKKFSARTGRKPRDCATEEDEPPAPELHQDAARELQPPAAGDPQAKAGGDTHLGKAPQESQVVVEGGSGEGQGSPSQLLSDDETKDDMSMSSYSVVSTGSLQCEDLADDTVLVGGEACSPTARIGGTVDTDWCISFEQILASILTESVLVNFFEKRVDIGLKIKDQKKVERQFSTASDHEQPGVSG
UniProt O60220: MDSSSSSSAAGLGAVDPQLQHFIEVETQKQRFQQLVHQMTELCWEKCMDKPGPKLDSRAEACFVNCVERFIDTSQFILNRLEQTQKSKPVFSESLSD
UniProt Q15814: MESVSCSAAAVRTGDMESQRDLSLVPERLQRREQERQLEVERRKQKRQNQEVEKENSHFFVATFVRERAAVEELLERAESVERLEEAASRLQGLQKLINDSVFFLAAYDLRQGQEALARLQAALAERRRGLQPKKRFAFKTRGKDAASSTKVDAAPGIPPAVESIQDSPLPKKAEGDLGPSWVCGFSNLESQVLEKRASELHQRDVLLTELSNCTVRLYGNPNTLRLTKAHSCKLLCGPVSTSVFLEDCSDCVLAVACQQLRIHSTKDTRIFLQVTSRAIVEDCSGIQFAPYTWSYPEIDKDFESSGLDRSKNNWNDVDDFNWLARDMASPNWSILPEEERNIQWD
UniProt O75347: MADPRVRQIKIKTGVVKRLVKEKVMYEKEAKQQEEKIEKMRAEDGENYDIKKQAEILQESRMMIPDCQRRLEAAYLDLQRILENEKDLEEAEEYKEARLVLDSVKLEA
UniProt Q01085: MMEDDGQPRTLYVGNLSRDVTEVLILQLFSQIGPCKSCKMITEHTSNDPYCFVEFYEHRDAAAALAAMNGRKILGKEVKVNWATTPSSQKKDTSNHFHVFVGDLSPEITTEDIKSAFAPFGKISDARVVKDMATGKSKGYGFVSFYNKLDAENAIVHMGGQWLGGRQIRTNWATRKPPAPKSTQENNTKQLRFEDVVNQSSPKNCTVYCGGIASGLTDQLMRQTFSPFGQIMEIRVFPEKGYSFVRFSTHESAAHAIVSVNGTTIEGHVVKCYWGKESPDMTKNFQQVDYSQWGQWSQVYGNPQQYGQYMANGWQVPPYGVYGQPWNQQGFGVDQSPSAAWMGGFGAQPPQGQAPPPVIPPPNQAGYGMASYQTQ
UniProt Q9Y584: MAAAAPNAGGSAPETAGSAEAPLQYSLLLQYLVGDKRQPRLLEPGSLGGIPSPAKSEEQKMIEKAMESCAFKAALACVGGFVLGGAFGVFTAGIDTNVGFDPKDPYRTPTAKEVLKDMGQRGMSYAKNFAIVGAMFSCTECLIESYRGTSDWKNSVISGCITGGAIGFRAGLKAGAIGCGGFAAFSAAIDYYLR
UniProt P35443: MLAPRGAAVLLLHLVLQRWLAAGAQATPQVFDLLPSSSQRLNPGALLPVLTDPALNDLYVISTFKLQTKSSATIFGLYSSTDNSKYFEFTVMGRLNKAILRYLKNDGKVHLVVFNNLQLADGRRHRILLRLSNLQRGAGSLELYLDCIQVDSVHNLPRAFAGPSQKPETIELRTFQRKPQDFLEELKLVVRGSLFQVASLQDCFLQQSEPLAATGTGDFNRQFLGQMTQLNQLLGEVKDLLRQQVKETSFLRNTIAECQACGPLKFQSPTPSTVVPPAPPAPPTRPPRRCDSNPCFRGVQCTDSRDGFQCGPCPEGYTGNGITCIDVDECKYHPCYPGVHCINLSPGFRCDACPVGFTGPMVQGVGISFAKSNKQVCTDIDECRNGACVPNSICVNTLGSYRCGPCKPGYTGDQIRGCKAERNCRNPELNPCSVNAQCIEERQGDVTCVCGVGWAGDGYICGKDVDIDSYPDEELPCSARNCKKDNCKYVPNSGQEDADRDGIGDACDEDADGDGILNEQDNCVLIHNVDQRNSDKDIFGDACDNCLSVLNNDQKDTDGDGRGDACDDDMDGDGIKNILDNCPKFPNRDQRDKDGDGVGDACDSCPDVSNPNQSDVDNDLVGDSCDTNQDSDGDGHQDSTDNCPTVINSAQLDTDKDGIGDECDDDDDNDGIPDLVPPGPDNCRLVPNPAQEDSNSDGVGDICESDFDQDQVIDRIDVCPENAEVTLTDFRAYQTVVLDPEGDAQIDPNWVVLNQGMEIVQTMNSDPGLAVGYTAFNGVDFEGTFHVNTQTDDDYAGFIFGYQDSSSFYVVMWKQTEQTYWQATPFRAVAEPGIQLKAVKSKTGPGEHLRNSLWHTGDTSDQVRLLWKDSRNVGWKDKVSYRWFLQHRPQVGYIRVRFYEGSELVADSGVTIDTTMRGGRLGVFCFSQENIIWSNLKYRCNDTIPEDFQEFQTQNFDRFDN
UniProt Q15554: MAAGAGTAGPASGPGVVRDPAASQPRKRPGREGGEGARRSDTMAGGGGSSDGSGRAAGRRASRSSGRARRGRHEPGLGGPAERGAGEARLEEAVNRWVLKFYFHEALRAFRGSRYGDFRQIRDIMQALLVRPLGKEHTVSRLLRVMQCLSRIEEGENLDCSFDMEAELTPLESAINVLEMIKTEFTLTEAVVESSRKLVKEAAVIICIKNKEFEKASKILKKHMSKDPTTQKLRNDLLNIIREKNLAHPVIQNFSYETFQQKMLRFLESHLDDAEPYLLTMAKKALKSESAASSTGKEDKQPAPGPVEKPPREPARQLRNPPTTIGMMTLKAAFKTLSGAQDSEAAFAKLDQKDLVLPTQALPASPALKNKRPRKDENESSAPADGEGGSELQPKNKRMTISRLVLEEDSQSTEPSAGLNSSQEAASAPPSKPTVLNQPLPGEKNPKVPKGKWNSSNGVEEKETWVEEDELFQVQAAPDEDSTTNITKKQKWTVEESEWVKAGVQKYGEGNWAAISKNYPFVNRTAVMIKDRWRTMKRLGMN
UniProt Q9Y5L4: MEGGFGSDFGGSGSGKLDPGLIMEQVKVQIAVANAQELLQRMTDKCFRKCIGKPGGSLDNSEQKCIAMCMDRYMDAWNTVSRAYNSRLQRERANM
UniProt O60907: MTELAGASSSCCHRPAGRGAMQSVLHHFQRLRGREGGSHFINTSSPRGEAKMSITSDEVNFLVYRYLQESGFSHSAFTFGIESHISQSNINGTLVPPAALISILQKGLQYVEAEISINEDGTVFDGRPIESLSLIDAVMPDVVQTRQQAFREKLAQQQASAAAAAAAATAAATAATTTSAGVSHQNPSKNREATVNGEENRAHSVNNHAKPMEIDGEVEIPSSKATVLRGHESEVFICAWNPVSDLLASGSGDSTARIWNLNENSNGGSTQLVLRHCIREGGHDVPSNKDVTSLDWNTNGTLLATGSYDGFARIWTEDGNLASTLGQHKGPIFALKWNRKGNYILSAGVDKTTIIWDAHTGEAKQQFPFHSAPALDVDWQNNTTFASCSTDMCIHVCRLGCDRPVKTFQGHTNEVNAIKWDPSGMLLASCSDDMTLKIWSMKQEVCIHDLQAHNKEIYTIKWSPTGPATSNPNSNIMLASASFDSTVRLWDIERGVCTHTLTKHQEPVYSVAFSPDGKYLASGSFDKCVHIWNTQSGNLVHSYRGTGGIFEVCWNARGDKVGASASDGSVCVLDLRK
UniProt Q8TC07: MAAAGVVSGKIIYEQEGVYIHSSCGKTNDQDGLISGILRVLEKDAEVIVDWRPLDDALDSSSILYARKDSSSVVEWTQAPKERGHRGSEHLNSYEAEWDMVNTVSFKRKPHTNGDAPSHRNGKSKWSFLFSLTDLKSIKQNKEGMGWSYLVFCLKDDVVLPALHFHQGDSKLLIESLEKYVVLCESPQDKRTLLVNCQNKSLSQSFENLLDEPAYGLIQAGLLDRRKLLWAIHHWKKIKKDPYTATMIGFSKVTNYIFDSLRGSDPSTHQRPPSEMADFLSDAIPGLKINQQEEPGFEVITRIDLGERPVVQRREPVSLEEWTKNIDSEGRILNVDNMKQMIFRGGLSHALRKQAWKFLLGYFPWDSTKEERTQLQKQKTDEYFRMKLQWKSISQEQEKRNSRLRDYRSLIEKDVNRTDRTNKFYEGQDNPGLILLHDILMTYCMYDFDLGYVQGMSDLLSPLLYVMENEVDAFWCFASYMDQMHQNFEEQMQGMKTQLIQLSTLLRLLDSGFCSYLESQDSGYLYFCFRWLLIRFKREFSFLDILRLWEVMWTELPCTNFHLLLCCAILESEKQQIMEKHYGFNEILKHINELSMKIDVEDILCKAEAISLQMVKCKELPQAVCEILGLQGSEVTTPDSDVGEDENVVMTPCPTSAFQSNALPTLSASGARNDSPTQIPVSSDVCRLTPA

compound: C[C@@H](Oc1cc(-c2cnn(C3CCNCC3)c2)cnc1N)c1c(Cl)ccc(F)c1Cl [crizotinib]; experiment: log2 fold change, soluble protein after heating vs DMSO (PISA); higher = thermal stabilisation; K562 cells, 10 uM, 30 min; active = over 0.2 and 3.5 SD of the protein, either way, in both replicates (recomputed)
Method in brief: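 Aliquots of K562 cells (2×10^6 cells/mL) treated with 10 μM compound for 30 min were heated for 3 min over 48°C-58°C. After pooling and extraction in PBS with 0.5% NP-40 at 4°C, soluble protein from a 21,000xg, 90 min spin was quantified by TMTpro 16plex LC-MS/MS with channel sums equalised. Thermal stability is expressed against control samples, from duplicates, as a log2 fold change.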

log2 fold change, inactive:
TEX264 (UniProt Q9Y6I9) 0.079
THOP1 (UniProt P52888) 0.038
TGFBRAP1 (UniProt Q8WUH2) -0.367
TIMM9 (UniProt Q9Y5J7) 0.309
TCF3 (UniProt P15923) -0.003
TIMM10 (UniProt P62072) 0.051
TFR2 (UniProt Q9UP52) -0.182
TBL1XR1 (UniProt Q9BZK7) 0.038
TBC1D9B (UniProt Q66K14) -0.084
TKFC (UniProt Q3LXA3) 0.013
TGFBR1 isoform 2 (UniProt P36897) 0.133
TCOF1 isoform 4 (UniProt Q13428) -0.053
TIMM8A (UniProt O60220) 0.051
THUMPD2 (UniProt Q9BTF0) 0.059
TFB2M (UniProt Q9H5Q4) -0.06
TIMM17A (UniProt Q99595) 0.026
THG1L (UniProt Q9NWX6) 0.031
TBCC (UniProt Q15814) 0.001
TES (UniProt Q9UGI8) -0.013
TELO2 (UniProt Q9Y4R8) -0.055
TBCA (UniProt O75347) 0.007
TBC1D4 (UniProt O60343) -0.051
TIAL1 isoform 2 (UniProt Q01085) -0.039
TLE3 isoform 4 (UniProt Q04726) 0.052
TGM2 (UniProt P21980) -0.012
TGFB1 (UniProt P01137) 0.091
TDP2 isoform 2 (UniProt O95551) -0.077
TECR (UniProt Q9NZ01) -0.247
TIMM22 (UniProt Q9Y584) -0.067
THBS4 (UniProt P35443) 0.163
TERF2 (UniProt Q15554) -0.019
TICAM2 isoform 2 (UniProt Q86XR7) 0.013
TIMM13 (UniProt Q9Y5L4) 0.051
TBL1X (UniProt O60907) 0.063
TF (UniProt P02787) 0.176
THOC5 (UniProt Q13769) 0.069
TBC1D15 isoform 3 (UniProt Q8TC07) -0.275
TESC (UniProt Q96BS2) 0.068
TCERG1 (UniProt O14776) 0.073

2 neighbouring records already listed:
log2 fold change, inactive:
TFR2 (UniProt Q9UP52) -0.182
TBL1XR1 (UniProt Q9BZK7) 0.038

Next part.

log2 fold change, active:
TFRC (UniProt P02786) -0.283
